Assay results reported in patent publication US8268827B2, “Pyridazinone derivatives as PARP inhibitors” (Istituto di Ricerche di Biologia Molecolare P. Angeletti …, priority 2007, dated 2012).
Structures can show the parent of a compound that is named as a salt. Some results were stated once for a whole list of compounds, not compound by compound.

Sequences of proteins named here, by UniProt entry; tags and fusion partners are left off.
UniProt P09874, whole entry: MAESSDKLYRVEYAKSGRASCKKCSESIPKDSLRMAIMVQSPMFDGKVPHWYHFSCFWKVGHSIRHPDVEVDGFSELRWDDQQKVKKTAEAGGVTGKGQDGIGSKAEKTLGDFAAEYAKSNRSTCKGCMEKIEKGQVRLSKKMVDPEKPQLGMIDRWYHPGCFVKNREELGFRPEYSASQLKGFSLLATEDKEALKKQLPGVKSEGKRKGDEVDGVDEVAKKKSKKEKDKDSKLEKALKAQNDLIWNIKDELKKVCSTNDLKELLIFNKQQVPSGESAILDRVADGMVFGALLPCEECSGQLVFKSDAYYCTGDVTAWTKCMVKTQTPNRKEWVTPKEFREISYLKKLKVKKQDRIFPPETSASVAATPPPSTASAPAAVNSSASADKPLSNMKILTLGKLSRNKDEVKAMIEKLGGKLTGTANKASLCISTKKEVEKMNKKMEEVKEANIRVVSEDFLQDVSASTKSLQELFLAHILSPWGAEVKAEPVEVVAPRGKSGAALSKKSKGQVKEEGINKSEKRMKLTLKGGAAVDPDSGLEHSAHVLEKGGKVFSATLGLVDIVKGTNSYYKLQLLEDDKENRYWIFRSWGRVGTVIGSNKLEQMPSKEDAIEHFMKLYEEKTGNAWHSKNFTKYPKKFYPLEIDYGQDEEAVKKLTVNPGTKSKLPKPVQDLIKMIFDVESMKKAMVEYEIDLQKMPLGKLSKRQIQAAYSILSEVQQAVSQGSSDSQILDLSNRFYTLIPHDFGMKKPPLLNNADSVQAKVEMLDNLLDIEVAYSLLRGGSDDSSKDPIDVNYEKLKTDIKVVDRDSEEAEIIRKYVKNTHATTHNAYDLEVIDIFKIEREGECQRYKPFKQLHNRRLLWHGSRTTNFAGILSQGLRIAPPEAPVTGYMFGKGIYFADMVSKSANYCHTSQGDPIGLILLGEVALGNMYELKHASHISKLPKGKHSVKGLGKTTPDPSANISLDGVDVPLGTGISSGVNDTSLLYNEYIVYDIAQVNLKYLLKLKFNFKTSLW

Target: T1, PARP-1 (Homo sapiens, UniProt P09874)
T1 construct: purchased Trevigen 4668-500-01
Assay: PARP-1 SPA assay
Format: biochemical
Procedure: Assay buffer: 100 mM Tris pH 8, 4 mM MgCl2, 4 mM Spermine, 200 mM KCl, 0.04% Nonidet P-40.
Nicotinamide-adenine dinucleotide (NAD)/DNA Mix: [^3H-NAD] (250 uCi/ml, 0.4 ul, Perkin-Elmer NET-443H), NAD (1.5 mM, 0.05 ul, SIGMA N-1511), Biotinylated-NAD (250 uM, 0.03 ul, Trevigen 4670-500-01), Activated calf thymus (1 mg/ml, 0.05 ul, Amersham Biosciences 27-4575), H2O (to 10 ul).
Developing Mix: Streptavidin SPA beads (5 mg/ml, Amersham Biosciences RPNQ 0007) dissolved in 500 mM EDTA.
The reaction is performed in 96-well microplate with a final volume of 50 uL/well. Add 5 ul 5% DMSO/compound solution, add enzyme mix (35 ul), start the reaction by adding NAD/DNA mix (10 uL) and incubate for 2 hrs at RT. Stop the reaction by adding developing mix (25 ul) and incubate 15 min at RT. Measure using a Packard TOP COUNT instrument.

Structure (SMILES) | IC50 [nM]
Cc1c(Cc2ccc(F)c(C(=O)N3CCN(C4CCN(S(C)(=O)=O)CC4)C(=O)C3)c2)n[nH]c(=O)c1C [Example 111, 6-[4-fluoro-3-({4-[1-(methylsulfonyl)piperidin-4-yl]-3-oxopiperazin-1-yl}carbonyl)benzyl]-4,5-dimethyl-3-oxo-2,3-dihydropyridazin-1-ium trifluoroacetate] | < 5
Cc1c(Cc2ccc(F)c(C(=O)N3CCN([C@@H]4CCOC4)C(=O)C3)c2)n[nH]c(=O)c1C [Example 112, 6-[4-Fluoro-3-({3-oxo-4-[(3R)-tetrahydrofuran-3-yl]piperazin-1-yl}carbonyl)benzyl]-4,5-dimethylpyridazin-3(2H)-one] | < 5
Cc1c(Cc2ccc(F)c(C(=O)N3CCN(c4cncn4C)C(=O)C3)c2)n[nH]c(=O)c1C [Example 116, 3-(4-Fluoro-3-{[4-(1-methyl-1H-imidazol-5-yl)-3-oxopiperazin-1-yl]carbonyl}benzyl)-4,5-dimethyl-6-oxo-1,6-dihydropyridazin-1-ium trifluoroacetate] | < 5
Cc1nc(C)c(N2CCN(C(=O)c3cc(Cc4n[nH]c(=O)c(C)c4C)ccc3F)CC2=O)s1 [Example 117, 3-(3-{[4-(2,4-Dimethyl-1,3-thiazol-5-yl)-3-oxopiperazin-1-yl]carbonyl}-4-fluorobenzyl)-4,5-dimethyl-6-oxo-1,6-dihydropyridazin-1-ium trifluoroacetate] | < 5
Cc1c(Cc2ccc(F)c(C(=O)N3CCN(C(c4ccc(F)cc4)C(F)F)C(=O)C3)c2)n[nH]c(=O)c1C (stereo not drawn) [Example 118, 6-[3-({4-[2,2-difluoro-1-(4-fluorophenyl)ethyl]-3-oxopiperazin-1-yl}carbonyl)-4-fluorobenzyl]-4,5-dimethyl-3-oxo-2,3-dihydropyridazin-1-ium trifluoroacetate] | < 5
Cc1c(Cc2ccc(F)c(C(=O)N3CCN(C4CCC(c5ccccc5)C4)C(=O)C3)c2)n[nH]c(=O)c1C (stereo not drawn) [Example 119, 6-(4-fluoro-3-{[3-oxo-4-(3-phenylcyclopentyl)piperazin-1-yl]carbonyl}benzyl)-4,5-dimethyl-3-oxo-2,3-dihydropyridazin-1-ium trifluoroacetate] | < 5
Cc1c(Cc2ccc(F)c(C(=O)N3CCN([C@H](C)c4ccccc4)C(=O)C3)c2)n[nH]c(=O)c1C [Example 121, 6-[4-fluoro-3-({3-oxo-4-[(1R)-1-phenylethyl]piperazin-1-yl}carbonyl)benzyl]-4,5-dimethyl-3-oxo-2,3-dihydropyridazin-1-ium trifluoroacetate] | < 5
Cc1c(Cc2ccc(F)c(C(=O)N3CCN([C@@H](C)c4ccccc4)C(=O)C3)c2)n[nH]c(=O)c1C [Example 122, 6-[4-fluoro-3-({3-oxo-4-[(1S)-1-phenylethyl]piperazin-1-yl}carbonyl)benzyl]-4,5-dimethyl-3-oxo-2,3-dihydropyridazin-1-ium trifluoroacetate] | < 5
Cc1c(Cc2ccc(F)c(C(=O)N3CCN([C@H](c4ccccc4)C(F)F)C(=O)C3)c2)n[nH]c(=O)c1C [Example 123, 6-(3-{[4-(2,2-difluoro-1R-phenylethyl)-3-oxopiperazin-1-yl]carbonyl}-4-fluorobenzyl)-4,5-dimethyl-3-oxo-2,3-dihydropyridazin-1-ium trifluoroacetate] | < 5
Cc1c(Cc2ccc(F)c(C(=O)N3CC(=O)N(C4CCC(F)(F)CC4)C(C)C3)c2)n[nH]c(=O)c1C (stereo not drawn) [Example 126, 6-(3-{[4-(4,4-Difluorocyclohexyl)-3-methyl-5-oxopiperazin-1-yl]carbonyl}-4-fluorobenzyl)-4,5-dimethylpyridazin-3(2H)-one trifluoroacetate] | < 5
Cc1c(Cc2ccc(F)c(C(=O)N3CC(=O)N(C4CCC(F)(F)C4)C(C)C3)c2)n[nH]c(=O)c1C (stereo not drawn) [Example 127, 6-(3-{[4-(3,3-Difluorocyclopentyl)-3-methyl-5-oxopiperazin-1-yl]carbonyl}-4-fluorobenzyl)-4,5-dimethylpyridazin-3(2H)-one trifluoroacetate] | < 5
Cc1c(Cc2ccc(F)c(C(=O)N3CC(=O)N(C4CCC(C)(C)CC4)C(C)C3)c2)n[nH]c(=O)c1C (stereo not drawn) [Example 128, 6-(3-{[4-(4,4-Dimethylcyclohexyl)-3-methyl-5-oxopiperazin-1-yl]carbonyl}-4-fluorobenzyl)-4,5-dimethylpyridazin-3(2H)-one trifluoroacetate] | < 5
Cc1c(Cc2ccc(F)c(C(=O)N3CC(=O)N(C4CCCOC4)C(C)C3)c2)n[nH]c(=O)c1C (stereo not drawn) [Example 129, 6-(4-Fluoro-3-{[3-methyl-5-oxo-4-(tetrahydro-2h-pyran-3-yl)piperazin-1-yl]carbonyl}benzyl)-4,5-dimethylpyridazin-3(2H)-one trifluoroacetate] | < 5
Cc1c(Cc2ccc(F)c(C(=O)N3CC(=O)N(C4CCOC4)C(C)C3)c2)n[nH]c(=O)c1C (stereo not drawn) [Example 130, 6-(4-Fluoro-3-{[3-methyl-5-oxo-4-(tetrahydrofuran-3-yl)piperazin-1-yl]carbonyl}benzyl)-4,5-dimethylpyridazin-3(2H)-one trifluoroacetate] | < 5
Cc1c(Cc2ccc(F)c(C(=O)N3CC(=O)N(C(c4ccccc4)C(F)F)C(C)C3)c2)n[nH]c(=O)c1C (stereo not drawn) [Example 131, 6-(3-{[4-(2,2-Difluoro-1-phenylethyl)-3-methyl-5-oxopiperazin-1-yl]carbonyl}-4-fluorobenzyl)-4,5-dimethylpyridazin-3(2H)-one trifluoroacetate] | < 5
Cc1c(Cc2ccc(F)c(C(=O)N3CC(=O)N(C4COc5ccccc5C4)C(C)C3)c2)n[nH]c(=O)c1C (stereo not drawn) [Example 132, 6-(3-{[4-(3,4-Dihydro-2H-chromen-3-yl)-3-methyl-5-oxopiperazin-1-yl]carbonyl}-4-fluorobenzyl)-4,5-dimethylpyridazin-3(2H)-one trifluoroacetate] | < 5
O=C(c1cc(Cc2cc(C(F)(F)F)c(=O)[nH]n2)ccc1F)N1CCN([C@H]2CCCOC2)C(=O)C1 [Example 153, 6-[4-fluoro-3-({3-oxo-4-[(3S)-tetrahydro-2H-pyran-3-yl]piperazin-1-yl}carbonyl)benzyl]-4-(trifluoromethyl)pyridazin-3(2H)-one] | < 5
O=C(c1cc(Cc2cc(C(F)(F)F)c(=O)[nH]n2)ccc1F)N1CCN([C@@H]2CCCOC2)C(=O)C1 [Example 154, 6-[4-fluoro-3-({3-oxo-4-[(3R)-tetrahydro-2H-pyran-3-yl]piperazin-1-yl}carbonyl)benzyl]-4-(trifluoromethyl)pyridazin-3(2H)-one] | < 5
CCN1C(=O)CN(C(=O)c2cc(Cc3n[nH]c(=O)c(C(F)(F)F)c3C)ccc2F)C[C@@H]1C [Example 155, 6-(3-{[(3S)-4-ethyl-3-methyl-5-oxopiperazin-1-yl]carbonyl}-4-fluorobenzyl)-5-methyl-4-(trifluoromethyl)pyridazin-3(2H)-one] | < 5
CC[C@H](C)N1CCN(C(=O)c2cc(Cc3n[nH]c(=O)c(C)c3C)ccc2F)CC1=O [Example 161, 6-[4-Fluoro-3-({4-[(1S)-1-methylpropyl]-3-oxopiperazin-1-yl}carbonyl)benzyl]-4,5-dimethylpyridazin-3(2H)-one] | < 5
COCC(C)N1CCN(C(=O)c2cc(Cc3n[nH]c(=O)c(C)c3C)ccc2F)CC1=O (stereo not drawn) [Example 162, 6-(4-Fluoro-3-{[4-(2-methoxy-1-methylethyl)-3-oxopiperazin-1-yl]carbonyl}benzyl)-4,5-dimethylpyridazin-3(2H)-one] | < 5
Cc1c(Cc2ccc(F)c(C(=O)N3CC(=O)N(C4CCC4)C(C)C3)c2)n[nH]c(=O)c1C (stereo not drawn) [Example 163, 6-{3-[(4-Cyclobutyl-3-methyl-5-oxopiperazin-1-yl)carbonyl]-4-fluorobenzyl}-4,5-dimethylpyridazin-3(2H)-one] | < 5
CCC1CN(C(=O)c2cc(Cc3n[nH]c(=O)c(C)c3C)ccc2F)CC(=O)N1C1CCC1 (stereo not drawn) [Example 164, 6-{3-[(4-Cyclobutyl-3-ethyl-5-oxopiperazin-1-yl)carbonyl]-4-fluorobenzyl}-4,5-dimethylpyridazin-3(2H)-one] | < 5
Cc1c(Cc2ccc(F)c(C(=O)N3CC(=O)N(c4cccc(Cl)c4)C(C)C3)c2)n[nH]c(=O)c1C (stereo not drawn) [Example 165, 6-(3-{[4-(3-Chlorophenyl)-3-methyl-5-oxopiperazin-1-yl]carbonyl}-4-fluorobenzyl)-4,5-dimethylpyridazin-3(2H)-one] | < 5
Cc1c(Cc2ccc(F)c(C(=O)N3CC(=O)N(c4ccc(C#N)cc4)[C@@H](C)C3)c2)n[nH]c(=O)c1C [Example 166, 4-((2S)-4-{5-[(4,5-Dimethyl-6-oxo-1,6-dihydropyridazin-3-yl)methyl]-2-fluorobenzoyl}-2-methyl-6-oxopiperazin-1-yl)benzonitrile] | < 5
CCC(CC)N1CCN(C(=O)c2cc(Cc3n[nH]c(=O)c(C)c3C)ccc2F)CC1=O [Example 167, 6-(3-{[4-(1-Ethylpropyl)-3-oxopiperazin-1-yl]carbonyl}-4-fluorobenzyl)-4,5-dimethylpyridazin-3(2H)-one] | < 5
CC[C@@H](C)N1CCN(C(=O)c2cc(Cc3n[nH]c(=O)c(C)c3C)ccc2F)CC1=O [Example 168, 6-[4-Fluoro-3-({4-[(1R)-1-methylpropyl]-3-oxopiperazin-1-yl}carbonyl)benzyl]-4,5-dimethylpyridazin-3(2H)-one] | < 5
